Test results published in the supplement of paper PMC12595434, “Development of retinoid nuclear receptor pathway antagonists through targeting aldehyde dehydrogenase 1A3” (iScience, 2025).
The other results are listed elsewhere or left out. This is a noisy data set.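 Many melting curves are irregular; where none melted, Tm was taken as 64 °C.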

Protein sequences, listed by entry. Tags and fused reporters are not part of them. Lines headed by an entry give the natural chain unless they say otherwise; changes in a name come on top.
UniProt Q969X5: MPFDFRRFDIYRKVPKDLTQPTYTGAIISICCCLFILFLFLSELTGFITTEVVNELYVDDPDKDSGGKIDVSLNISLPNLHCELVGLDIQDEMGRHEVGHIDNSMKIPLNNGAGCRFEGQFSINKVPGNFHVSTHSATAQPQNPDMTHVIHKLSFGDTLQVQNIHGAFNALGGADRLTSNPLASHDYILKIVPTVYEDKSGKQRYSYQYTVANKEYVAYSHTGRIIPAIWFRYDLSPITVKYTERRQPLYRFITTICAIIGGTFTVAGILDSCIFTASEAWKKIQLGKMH
UniProt Q8WW33: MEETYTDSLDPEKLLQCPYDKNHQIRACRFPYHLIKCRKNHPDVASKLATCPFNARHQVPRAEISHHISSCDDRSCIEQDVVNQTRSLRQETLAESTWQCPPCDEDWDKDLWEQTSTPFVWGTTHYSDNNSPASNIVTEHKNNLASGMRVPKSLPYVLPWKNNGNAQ
UniProt Q96CT7: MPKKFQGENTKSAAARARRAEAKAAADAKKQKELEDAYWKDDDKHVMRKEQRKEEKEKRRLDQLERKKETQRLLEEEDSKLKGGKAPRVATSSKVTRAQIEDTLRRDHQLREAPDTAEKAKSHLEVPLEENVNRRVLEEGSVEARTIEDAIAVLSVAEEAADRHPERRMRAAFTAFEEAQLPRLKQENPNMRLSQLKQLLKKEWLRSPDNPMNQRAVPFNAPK
UniProt Q8WXW3: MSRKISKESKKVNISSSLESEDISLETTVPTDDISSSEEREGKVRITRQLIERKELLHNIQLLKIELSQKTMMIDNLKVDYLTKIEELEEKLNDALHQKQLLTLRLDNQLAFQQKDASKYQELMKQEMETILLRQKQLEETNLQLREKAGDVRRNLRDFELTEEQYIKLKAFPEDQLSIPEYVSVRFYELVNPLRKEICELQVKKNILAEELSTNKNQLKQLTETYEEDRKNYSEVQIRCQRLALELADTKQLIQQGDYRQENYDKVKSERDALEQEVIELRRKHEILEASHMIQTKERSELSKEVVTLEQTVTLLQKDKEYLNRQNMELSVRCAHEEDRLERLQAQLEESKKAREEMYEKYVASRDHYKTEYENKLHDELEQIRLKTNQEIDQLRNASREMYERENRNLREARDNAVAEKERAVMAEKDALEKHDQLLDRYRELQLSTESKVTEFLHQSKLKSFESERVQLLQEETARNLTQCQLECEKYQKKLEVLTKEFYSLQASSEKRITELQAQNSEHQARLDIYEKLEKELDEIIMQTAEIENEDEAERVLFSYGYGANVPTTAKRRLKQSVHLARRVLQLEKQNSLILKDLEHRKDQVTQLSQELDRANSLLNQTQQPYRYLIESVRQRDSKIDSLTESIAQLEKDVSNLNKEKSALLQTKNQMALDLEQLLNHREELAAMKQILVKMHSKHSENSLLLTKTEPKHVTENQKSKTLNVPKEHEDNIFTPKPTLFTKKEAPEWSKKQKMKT
UniProt Q92600, whole entry: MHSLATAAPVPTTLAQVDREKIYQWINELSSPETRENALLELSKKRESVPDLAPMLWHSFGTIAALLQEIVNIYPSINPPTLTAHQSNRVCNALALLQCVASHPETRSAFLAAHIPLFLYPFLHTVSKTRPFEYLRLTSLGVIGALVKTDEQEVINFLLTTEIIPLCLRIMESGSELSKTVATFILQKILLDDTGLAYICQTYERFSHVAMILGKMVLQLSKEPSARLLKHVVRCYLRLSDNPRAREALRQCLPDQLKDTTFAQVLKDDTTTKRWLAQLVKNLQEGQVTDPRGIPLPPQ
UniProt Q96BT3, whole entry: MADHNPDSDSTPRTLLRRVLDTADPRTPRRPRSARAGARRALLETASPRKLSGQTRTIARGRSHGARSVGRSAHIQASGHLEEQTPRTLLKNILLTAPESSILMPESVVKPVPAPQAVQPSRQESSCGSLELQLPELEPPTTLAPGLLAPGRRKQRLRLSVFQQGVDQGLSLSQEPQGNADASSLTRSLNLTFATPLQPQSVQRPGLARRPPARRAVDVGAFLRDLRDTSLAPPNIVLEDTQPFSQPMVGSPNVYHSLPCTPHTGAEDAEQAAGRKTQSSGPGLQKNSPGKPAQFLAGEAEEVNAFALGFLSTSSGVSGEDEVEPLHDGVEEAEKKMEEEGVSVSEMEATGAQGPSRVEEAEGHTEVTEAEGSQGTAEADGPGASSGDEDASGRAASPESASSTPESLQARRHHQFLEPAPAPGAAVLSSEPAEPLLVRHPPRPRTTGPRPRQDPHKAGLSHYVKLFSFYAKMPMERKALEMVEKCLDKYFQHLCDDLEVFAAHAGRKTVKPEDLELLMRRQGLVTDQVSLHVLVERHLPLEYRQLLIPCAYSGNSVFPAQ
UniProt Q92562: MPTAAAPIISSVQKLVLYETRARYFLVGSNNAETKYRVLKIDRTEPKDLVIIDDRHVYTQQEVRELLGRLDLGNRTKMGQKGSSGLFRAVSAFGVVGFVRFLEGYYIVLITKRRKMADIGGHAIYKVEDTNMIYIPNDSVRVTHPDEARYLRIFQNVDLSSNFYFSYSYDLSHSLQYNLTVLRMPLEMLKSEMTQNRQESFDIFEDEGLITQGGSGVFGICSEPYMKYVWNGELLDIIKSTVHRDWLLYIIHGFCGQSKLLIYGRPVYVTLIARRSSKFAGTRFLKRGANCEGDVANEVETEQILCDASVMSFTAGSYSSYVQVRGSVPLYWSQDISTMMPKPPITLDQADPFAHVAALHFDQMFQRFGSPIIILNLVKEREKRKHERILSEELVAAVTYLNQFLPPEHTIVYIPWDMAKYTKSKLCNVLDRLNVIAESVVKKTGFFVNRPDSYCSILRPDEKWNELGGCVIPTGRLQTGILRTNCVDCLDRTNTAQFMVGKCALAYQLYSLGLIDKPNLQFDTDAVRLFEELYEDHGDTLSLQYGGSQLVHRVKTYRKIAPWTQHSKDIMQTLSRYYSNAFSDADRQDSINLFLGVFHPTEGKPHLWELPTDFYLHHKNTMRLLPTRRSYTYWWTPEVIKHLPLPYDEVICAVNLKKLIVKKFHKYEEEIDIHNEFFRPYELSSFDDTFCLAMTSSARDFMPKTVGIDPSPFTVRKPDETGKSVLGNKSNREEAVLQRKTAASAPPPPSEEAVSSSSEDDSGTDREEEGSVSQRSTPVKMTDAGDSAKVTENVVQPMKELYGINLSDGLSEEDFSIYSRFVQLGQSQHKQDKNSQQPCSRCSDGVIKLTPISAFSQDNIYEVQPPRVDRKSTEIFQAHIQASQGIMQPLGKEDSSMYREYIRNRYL
UniProt Q96AT9: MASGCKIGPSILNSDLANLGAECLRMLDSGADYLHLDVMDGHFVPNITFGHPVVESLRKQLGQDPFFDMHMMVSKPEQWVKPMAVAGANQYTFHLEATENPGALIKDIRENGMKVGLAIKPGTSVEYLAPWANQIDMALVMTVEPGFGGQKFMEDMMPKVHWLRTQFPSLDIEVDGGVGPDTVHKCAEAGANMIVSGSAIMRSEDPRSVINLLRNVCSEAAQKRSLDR
UniProt Q969G6: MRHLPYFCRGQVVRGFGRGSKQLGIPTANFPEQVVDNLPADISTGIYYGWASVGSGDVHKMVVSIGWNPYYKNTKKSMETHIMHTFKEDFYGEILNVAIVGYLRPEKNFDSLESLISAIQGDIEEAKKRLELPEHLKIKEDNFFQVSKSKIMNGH
UniProt Q969V5: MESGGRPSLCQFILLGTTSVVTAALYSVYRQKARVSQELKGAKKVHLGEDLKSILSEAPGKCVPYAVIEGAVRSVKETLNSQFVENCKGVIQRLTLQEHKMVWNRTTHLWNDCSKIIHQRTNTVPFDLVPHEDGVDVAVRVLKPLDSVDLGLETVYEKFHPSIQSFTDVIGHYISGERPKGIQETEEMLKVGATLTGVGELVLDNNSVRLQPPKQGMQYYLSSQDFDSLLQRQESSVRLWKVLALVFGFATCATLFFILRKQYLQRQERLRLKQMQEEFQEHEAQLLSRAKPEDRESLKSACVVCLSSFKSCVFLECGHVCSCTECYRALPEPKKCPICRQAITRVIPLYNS
UniProt Q969R5, whole entry: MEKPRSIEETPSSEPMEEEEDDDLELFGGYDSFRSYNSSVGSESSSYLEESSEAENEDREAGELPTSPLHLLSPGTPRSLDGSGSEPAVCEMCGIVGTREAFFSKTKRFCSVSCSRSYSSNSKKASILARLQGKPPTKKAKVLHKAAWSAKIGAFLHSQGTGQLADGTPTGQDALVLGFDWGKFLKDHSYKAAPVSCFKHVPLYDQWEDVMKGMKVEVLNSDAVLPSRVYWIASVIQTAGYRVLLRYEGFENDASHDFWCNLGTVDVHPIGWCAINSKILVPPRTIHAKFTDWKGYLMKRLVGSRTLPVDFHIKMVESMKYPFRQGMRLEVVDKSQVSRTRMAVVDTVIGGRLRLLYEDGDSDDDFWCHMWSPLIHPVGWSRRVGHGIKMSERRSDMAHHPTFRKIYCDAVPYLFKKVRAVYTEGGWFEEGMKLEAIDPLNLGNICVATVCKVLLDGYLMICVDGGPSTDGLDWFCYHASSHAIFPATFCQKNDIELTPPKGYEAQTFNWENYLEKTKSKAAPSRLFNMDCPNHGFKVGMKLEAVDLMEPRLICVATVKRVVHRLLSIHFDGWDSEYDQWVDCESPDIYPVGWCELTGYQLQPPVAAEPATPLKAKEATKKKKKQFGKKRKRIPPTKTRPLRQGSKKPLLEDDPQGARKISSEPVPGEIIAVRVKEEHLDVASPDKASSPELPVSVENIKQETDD
UniProt Q96E39: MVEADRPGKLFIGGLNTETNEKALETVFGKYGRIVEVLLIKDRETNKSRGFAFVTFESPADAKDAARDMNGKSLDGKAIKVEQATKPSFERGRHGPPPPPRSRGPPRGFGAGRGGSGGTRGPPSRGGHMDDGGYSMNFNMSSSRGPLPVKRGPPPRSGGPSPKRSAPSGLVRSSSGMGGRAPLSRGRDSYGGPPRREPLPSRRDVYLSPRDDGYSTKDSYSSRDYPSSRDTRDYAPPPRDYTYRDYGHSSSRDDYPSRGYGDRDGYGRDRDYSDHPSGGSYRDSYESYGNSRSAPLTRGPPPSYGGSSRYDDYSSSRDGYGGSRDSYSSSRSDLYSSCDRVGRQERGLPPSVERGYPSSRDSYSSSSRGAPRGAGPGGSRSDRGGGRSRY
UniProt Q92574: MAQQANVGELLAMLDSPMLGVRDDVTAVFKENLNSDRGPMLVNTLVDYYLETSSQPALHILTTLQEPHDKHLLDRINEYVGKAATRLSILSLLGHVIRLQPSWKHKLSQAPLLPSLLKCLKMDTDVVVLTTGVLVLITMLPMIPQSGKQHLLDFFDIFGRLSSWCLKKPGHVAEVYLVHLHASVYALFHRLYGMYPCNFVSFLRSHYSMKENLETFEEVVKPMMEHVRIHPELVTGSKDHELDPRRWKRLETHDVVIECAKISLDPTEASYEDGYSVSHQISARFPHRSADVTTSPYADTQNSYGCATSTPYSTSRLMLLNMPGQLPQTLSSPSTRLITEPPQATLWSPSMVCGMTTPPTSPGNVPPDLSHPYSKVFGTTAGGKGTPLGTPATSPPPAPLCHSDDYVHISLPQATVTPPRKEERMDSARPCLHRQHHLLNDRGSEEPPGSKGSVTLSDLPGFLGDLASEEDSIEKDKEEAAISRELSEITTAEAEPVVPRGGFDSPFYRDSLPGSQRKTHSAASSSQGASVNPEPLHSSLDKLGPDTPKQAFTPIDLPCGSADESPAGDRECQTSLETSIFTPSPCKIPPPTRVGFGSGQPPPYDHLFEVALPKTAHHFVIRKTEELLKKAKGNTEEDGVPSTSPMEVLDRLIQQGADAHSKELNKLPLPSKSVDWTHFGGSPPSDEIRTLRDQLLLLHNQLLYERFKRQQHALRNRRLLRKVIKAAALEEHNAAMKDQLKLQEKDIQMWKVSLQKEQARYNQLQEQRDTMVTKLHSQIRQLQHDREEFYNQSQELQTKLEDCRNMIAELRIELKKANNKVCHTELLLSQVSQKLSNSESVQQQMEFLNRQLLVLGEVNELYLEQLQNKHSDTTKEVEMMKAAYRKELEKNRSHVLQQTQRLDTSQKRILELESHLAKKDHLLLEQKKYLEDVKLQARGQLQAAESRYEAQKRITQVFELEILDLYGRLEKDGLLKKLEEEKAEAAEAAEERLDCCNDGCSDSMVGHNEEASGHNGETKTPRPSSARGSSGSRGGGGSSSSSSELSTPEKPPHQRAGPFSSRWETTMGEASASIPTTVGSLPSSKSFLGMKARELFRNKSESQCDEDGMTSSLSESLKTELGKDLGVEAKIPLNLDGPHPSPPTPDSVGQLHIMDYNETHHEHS
UniProt Q96BW1: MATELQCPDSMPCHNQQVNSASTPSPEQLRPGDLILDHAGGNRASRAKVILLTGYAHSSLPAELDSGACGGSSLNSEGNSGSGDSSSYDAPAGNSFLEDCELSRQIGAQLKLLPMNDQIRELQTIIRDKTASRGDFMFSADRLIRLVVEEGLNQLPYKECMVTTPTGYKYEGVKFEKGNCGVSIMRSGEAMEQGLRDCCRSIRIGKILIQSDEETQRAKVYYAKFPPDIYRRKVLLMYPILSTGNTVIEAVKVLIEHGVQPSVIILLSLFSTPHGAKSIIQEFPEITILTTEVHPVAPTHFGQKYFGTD

Compound: CCc1cnccc1C(=O)Nc1cc2c(cc1F)NC(=O)CC2
Assay: melting temperature shift (DMSO Tm minus MBE1-treated Tm) in cellular thermal proteome profiling; higher = less thermal stabilization by MBE1 (negative = stabilized by MBE1)
Settings: A375; MBE1 concentration: 100 nM

Target	melting temperature shift [°C]
NUDT16 (UniProt Q96DE0)	-1.07
ERGIC1 (UniProt Q969X5)	-1.23
DLG3 (UniProt Q92796)	0.244
UniProt Q8WW33	-4.07
CCDC124 (UniProt Q96CT7)	-1.26
KIF1BP (UniProt Q96EK5)	-0.875
ATG2B (UniProt Q96BY7)	-1.51
SMARCE1 (UniProt Q969G3)	-0.48
RPUSD4 (UniProt Q96CM3)	-2.97
PIBF1 (UniProt Q8WXW3)	-1.39
EXOC4 (UniProt Q96A65)	-0.781
DPF2 (UniProt Q92785)	-0.538
UniProt Q96A29	0.218
RQCD1 (UniProt Q92600)	-0.238
UniProt Q96BT3	-4.09
UniProt Q92562	-0.14
RPE (UniProt Q96AT9)	3.79

As entered above.
melting temperature shift [°C], ATG2B (UniProt Q96BY7) is entered as -1.51
melting temperature shift [°C], UniProt Q96BT3 is entered as -4.09

More entries follow:

Target	melting temperature shift [°C]
UniProt Q96DE5	-1.06
DOCK10 (UniProt Q96BY6)	0.0672
RFK (UniProt Q969G6)	-0.771
SYMPK (UniProt Q92797)	-0.816
MUL1 (UniProt Q969V5)	0.659
UniProt Q969R5	-0.231
UniProt Q96E39	1.47
TAF15 (UniProt Q92804)	-2.85
TSC1 (UniProt Q92574)	-0.179
UniProt Q8WYQ5	-0.0305
MRRF (UniProt Q96E11)	-0.104
UniProt Q93075	-3.84
SMARCD2 (UniProt Q92925)	-0.275
MRPS31 (UniProt Q92665)	-0.971
UPRT (UniProt Q96BW1)	-0.161
MED12 (UniProt Q93074)	-0.677
